Source: patent US6465428B1, “Pharmaceutical combinations based on dalfopristine and quinupristine, and on cefepime” (Aventis Pharma S.A., priority 1999, dated 2002)
At least one compound was matched to its structure with a doubt left.

System: MRSA AW7 and MRSA P8
Assay: Time-kill experiments
Format: cell-based, Staphylococcus aureus
Details: quinupristine/dalfopristine 0.5 mg/l, cefepime 5 mg/l

CO/N=C(\C(=O)N[C@@H]1C(=O)N2C(C(=O)[O-])=C(C[N+]3(C)CCCC3)CS[C@H]12)c1csc(N)n1 [cefepime, (6R,7R)-7-(2-(2-aminothiazol-4-yl)-2(Z)-(methoxyimino)acetamido)-3-(1-methyl-pyrrolidiniomethyl)-3-cephem-4-carboxylate] was tested, and the “Effect on bacterial growth in time-kill experiments” value was “ineffective and failed to prevent bacteria growth”.
